From patent publication US20160287622
Construct, isoform or probe ends are uncertain for at least one entry.

By UniProt entry, the sequences of proteins in these tests, tags left out. Where a name states a change or a piece, a line headed by the entry shows the natural chain unless it says otherwise.
UniProt Q7Z2W4: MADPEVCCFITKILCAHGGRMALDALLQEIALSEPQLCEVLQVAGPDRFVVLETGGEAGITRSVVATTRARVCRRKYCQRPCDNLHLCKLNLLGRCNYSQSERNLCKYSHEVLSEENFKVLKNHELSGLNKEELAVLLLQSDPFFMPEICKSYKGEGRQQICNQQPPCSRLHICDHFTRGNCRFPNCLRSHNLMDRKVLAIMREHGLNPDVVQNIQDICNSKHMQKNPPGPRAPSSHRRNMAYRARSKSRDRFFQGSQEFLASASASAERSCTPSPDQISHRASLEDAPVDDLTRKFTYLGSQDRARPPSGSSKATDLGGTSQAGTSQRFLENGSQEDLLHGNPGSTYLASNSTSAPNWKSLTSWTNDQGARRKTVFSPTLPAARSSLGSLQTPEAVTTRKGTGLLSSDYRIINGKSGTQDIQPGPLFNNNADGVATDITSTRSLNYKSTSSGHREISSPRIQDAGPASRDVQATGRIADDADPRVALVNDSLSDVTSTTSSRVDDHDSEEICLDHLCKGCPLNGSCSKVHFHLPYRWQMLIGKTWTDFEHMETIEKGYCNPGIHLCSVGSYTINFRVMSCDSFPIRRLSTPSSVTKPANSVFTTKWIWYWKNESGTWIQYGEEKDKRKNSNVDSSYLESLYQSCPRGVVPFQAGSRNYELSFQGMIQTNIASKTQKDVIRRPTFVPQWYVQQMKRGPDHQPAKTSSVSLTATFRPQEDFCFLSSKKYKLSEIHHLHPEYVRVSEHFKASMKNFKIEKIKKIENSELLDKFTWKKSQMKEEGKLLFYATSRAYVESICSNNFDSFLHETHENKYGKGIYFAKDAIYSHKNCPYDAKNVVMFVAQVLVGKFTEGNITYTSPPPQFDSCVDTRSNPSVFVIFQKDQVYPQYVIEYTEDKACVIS

Target: PARP13.1 (ZAP, ZC3HAV1 long isoform) (Homo sapiens) (UniProt Q7Z2W4)
Assay: EMSA
Conditions: 10 mM Tris pH 7.5, 1 mM EDTA, 0.1 M KCl, 0.1 mM DTT, 5% glycerol, 0.1 ug/ml tRNA, 20 C, 1 h; Hill fit; purified recombinant protein; label: 5'-32P

**Q.** “UCCUACUAGUCCUGACUGCUUAGACAAAGUCAUAGAUUAUGUUCCAGGCAUUUUCCAAGAAAACAGUUUUACAAUCCAAUACAUUCUGGACACCAGUGAUAAGCUGAGUACUGAGCUCUUUCAGGACAAAAGUGAAGAGGCUUCCCUUGACCUCGUGUUUGAGCUGGUGAACCAGUUGCAGUACCACACUCACCAAGAGAACGGAAUUGAAAUUUGCAUGGACUUUCUGCAAGGCACUUGUAUUUAUGGCAGGGAUUGUUUGAAGCACCACACUGUCUUGCCAUAUCAUUGGCAGAUCAAAAGGACAACUACUCAAAAGUGGCAGAGUGUAUUCAAUGAUUCUCAGGAGCACUUGGAAAGAUUUUACUGUAACCCAGAAAAUGAUAGAAUGAGAAUGAAGUAUGGAGGACAAGAAUUUUGGGCAGAUUUGAAUGCCAUGAACGUGUAUGAAACAACUGAAUUUGACCAACUACGAAGGCUGUCCACACCACCCUCUAGCAAUGUCAACUCUAUUUACCACACAGUCUGGAAAUUCUUCUGUAGGGACCACUUUGGAUGGAGAGAGUAUCCCGAGUCUGUCAUUCGAUUGAUUGAAGAAGC [TRAILR4 3'UTR Fragment E (nt 516-1115)]” was tested. Which Kd did it give?
**A.** 0.123 µM
